Measurements reported in publication PMC3692424, “A New Type of Na^+-Driven ATP Synthase Membrane Rotor with a Two-Carboxylate Ion-Coupling Motif” (PLoS Biology, 2013).

Substrate: Nc1ncnc2c1ncn2[C@@H]1O[C@H](COP(=O)(O)OP(=O)(O)OP(=O)(O)O)[C@@H](O)[C@H]1O
Test: purified protein
Settings: 50 mM MOPS, 2 mM MgCl2, pH 7.5, 37 °C

B1: F. nucleatum F1Fo-ATP synthase (purified) (Fusobacterium nucleatum subsp. nucleatum ATCC 25586) (protein)
chain 1: MNKGTITQIISAVVDIAFKDELPAIYNALKVKLEDKELVLEVEQHLGNNVVRTVAMDSTDGLKRGMEVIDTGKPITIPVGKAVLGRILNVLGEPVDNQGPLNAETFLPIHREAPEFDDLETETEIFETGIKVIDLLAPYIKGGKIGLFGGAGVGKTVLIMELINNIAKGHGGISVFAGVGERTREGRDLYGEMTESGVITKTALVYGQMNEPPGARLRVALTGLTVAENFRDKDGQDVLLFIDNIFRFTQAGSEVSALLGRIPSAVGYQPNLATEMGALQERITSTKSGSITSVQAVYVPADDLTDPAPATTFSHLDATTVLSRNIASLGIYPAVDPLDSTSKALSEDVVGKEHYEVARKVQEVLQRYKELQDIIAILGMDELSDEDKLTVSRARKIERFFSQPFSVAEQFTGMEGKYVPVKETIRGFREILEGKHDDIPEQAFLYVGTIEEAVAKSKDLAK
chain 2: MNIRPEEVSSIIKKEIDNYKKSLEIKTSGTVLEVGDGIARIFGLSNVMSGELLEFPHGVMGMALNLEEDNVGAVILGNASLIKEGDEVRATGKVVSVPAGEDLLGRVINALGDPIDGKGEIHVDKYMPIERKASGIIARQPVSEPLQTGIKSIDGMVPIGRGQRELIIGDRQTGKTAIAIDTIINQKGQDVKCIYVAIGQKRSTVAQIYKKLSDLGCMDYTIIVAATASEAAPLQYMAPYSGVAIGEYFMEKGEHVLIIYDDLSKHAVAYREMSLLLRRPPGREAYPGDVFYLHSRLLERAAKLSDELGGGSITALPIIETQAGDVSAYIPTNVISITDGQIFLESQLFNSGFRPAINAGISVSRVGGAAQIKAMKQVASKVKLELAQYTELLTFAQFGSDLDKATKAQLERGHRIMEILKQPQYHPFAVERQVVSFYIVINGHLDDIEVSKVRRFEKELLDYLKANTNILTEIADKKALDKDLEEKLKESIANFKKSFN
B1 was tested, and the Km was 250 µM.
